Earlier results in patent US20120101089A1, “Anti-Emetic Substance” (priority 2010, published 2012).
For at least one compound, name, drawing or mass did not settle the structure.

Row | SMILES | PONV and postoperative pain in the first 24 hours (i.m. 12 mg before general anesthesia, ambulatory foot or haemorrhoid operations (Aasboe)) | effect of added dexamethasone on efficacy of other anti-emetics (dexamethasone 8 mg with i.v. droperidol 1.25 mg, metoclopramide 10 mg or granisetron 40 μg/kg, major gynaecological surgery) | incidence of PONV versus saline placebo (i.v. 1 mg/kg, children 2 to 12 years, tonsillectomy) | prevention of nausea versus emesis (i.v. 8 mg, major gynaecological surgery) | difference between ondansetron and dexamethasone administered alone (i.v. ondansetron 4 mg, dexamethasone 8 mg, major gynaecological surgery)
1 | C[C@H]1C[C@H]2[C@@H]3CCC4=CC(=O)C=C[C@]4(C)[C@@]3(F)[C@@H](O)C[C@]2(C)[C@@]1(O)C(=O)CO [betamethasone] | produced less PONV and postoperative pain |  |  |  | 
2 | C[C@@H]1C[C@H]2[C@@H]3CCC4=CC(=O)C=C[C@]4(C)[C@@]3(F)[C@@H](O)C[C@]2(C)[C@@]1(O)C(=O)CO [dexamethasone] |  | improved the anti-emetic efficacy of granisetron but did not improve the anti-emetic effectiveness of the other medications | significantly decreased the incidence of PONV | more effective in preventing nausea than emesis | No difference
